# According to patent US20040175756A1:
# Sequences of proteins named here, by UniProt entry; tags and fusion partners are left off. Residues count along the entry.
# UniProt P10747, residues 19-152: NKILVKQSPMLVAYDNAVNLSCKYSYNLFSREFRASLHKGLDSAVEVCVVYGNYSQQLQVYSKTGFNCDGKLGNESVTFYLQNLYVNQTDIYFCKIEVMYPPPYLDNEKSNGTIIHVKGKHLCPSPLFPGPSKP
# UniProt P05231, residues 30-212: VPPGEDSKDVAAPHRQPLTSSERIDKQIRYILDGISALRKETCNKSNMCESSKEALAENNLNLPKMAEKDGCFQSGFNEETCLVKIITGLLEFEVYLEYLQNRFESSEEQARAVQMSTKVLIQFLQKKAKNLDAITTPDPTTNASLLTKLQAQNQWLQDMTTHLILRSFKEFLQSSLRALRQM
# UniProt P40238, residues 26-491: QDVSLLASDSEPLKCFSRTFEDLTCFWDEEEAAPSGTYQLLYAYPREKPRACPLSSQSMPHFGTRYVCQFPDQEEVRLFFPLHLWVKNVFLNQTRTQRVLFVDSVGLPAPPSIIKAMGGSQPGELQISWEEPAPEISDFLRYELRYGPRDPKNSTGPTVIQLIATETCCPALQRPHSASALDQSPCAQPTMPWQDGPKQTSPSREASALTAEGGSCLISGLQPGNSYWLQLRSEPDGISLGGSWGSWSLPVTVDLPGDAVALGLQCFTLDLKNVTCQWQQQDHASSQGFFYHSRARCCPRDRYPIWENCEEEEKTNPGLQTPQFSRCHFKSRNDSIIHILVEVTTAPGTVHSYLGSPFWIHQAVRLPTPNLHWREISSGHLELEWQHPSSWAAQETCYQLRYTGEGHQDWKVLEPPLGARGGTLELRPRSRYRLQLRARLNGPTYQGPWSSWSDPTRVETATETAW
# These are yes or no findings as the source states them, for the method shown. Some binding calls cover weakened binding; strength is not graded here.
# B1: CD28-A10 (designed binder)
# chain: CGPGRFQCESGQCVPATWVCDGDDDCADGSDEKSCATTAPTCESNQFQCGSGQCLPGTWRCDGVNDCADSSDETGCGRPGPGATSAPAACGPGRFQCNNGNCVPQTLGCDGDNDCGDSSDEANCSAPASEPPGSL
# B2: IL6#N7 (designed binder)
# chain: CPPSQFTCRSTNTCIPAPWRCDGDDDCEDDSDEADCGDSHILPFSTPGPSTCLSSQFQCKNGQCIPQTWVCDGDNDCEDDSDETGCGDSHILPFSTPGPST
# Experiments:
# CD28 = CD28 (UniProt P10747); test: phage clone ELISA on coated target protein
# IL6 = IL6 (UniProt P05231); test: phage clone ELISA on coated IL-6 (method as for CD28)
# recombinant TPO-R = recombinant TPO-R (UniProt P40238); test: phage clones assayed for binding to recombinant TPO-R and TF1 cells
Binder,binding (recombinant TPO-R),also measured
B1,,binding (CD28): binds
B2,,binding (IL6): binds
CPPSEFRCNSGQCIPREWRCDGDNDCADNSDEESCSAPASEPPGSLSLQ (designed binder) [T5 (TPO2)],binds,
CLPSEFRCSSGHCIPRRWRCDGEPDCQDGSDEANCGTSEHTSLQ (designed binder) [T2 (TPO9)],binds,
CQSNEFQCHNYNICLPRPWVCDGVNDCPDGSDEEGCSAPASEPPGSLSLQ (designed binder) [T1 (TPO10)],binds,
